Measurements from PubChem BioAssay AID248 (DTP/NCI, 2004).
The list shows only some results of the screen, not a fair sample: it gathers tests that were run many times, whatever their T/C, doses with no T/C, and many T/C values between a quarter and a half above the control. Further doses and runs are listed elsewhere. T/C gives the treated animals as a percentage of the vehicle group. Some entries give survivors of the animals treated and no T/C: the source holds a T/C of zero for them, seemingly a mark for toxic or unscored doses. Some survivor counts are full or nearly so, which does not show that the dose was tolerated: the source hardly ever lists a survival T/C far under the control, and the zero likely stands for such cases as well. Counts of survivors are from the toxicity check (mostly the fifth day) where no day follows; animals may have died later. Schedule codes are those of the source, taken here to give the interval after Q, in days (D) or hours (H), and the number of doses after X. Some schedule codes hold Z or #, which are not explained here. Where survival is the endpoint, this PubChem deposit counts one and a half times the control or more as active, and values a quarter to a half above the control carry no call in these data; other NCI protocols may use other cut-offs.

System: L1210 leukemia ip in BDF1 mice, survival T/C
Assay: NCI In Vivo Anticancer Drug Screen. Data for tumor model L1210 Leukemia (intraperitoneal) in B6D2F1 (BDF1) mice
Conditions: T/C endpoint: mean survival time, higher T/C = longer survival
[1] = dose: 50.0 mg/kg/injection, schedule: Q01DX009 (ip), vehicle: Klucel (hydroxypropylcellulose) (HPC)
[2] = dose: 200.0 mg/kg/injection, schedule: Q01DX Z (ip), vehicle: methylcellulose (MC)
[3] = dose: 400.0 mg/kg/injection, schedule: Q01DX009 (ip), vehicle: Klucel (hydroxypropylcellulose) (HPC)
[4] = dose: 400.0 mg/kg/injection, schedule: Q04DX003 (ip), vehicle: saline
[5] = dose: 400.0 mg/kg/injection, schedule: Q01DX009 (ip), vehicle: saline with Tween-80
[6] = dose: 200.0 mg/kg/injection, schedule: Q01DX001 (ip), vehicle: Klucel (hydroxypropylcellulose) (HPC)
[7] = dose: 400.0 mg/kg/injection, schedule: Q01DX001 (ip), vehicle: Klucel (hydroxypropylcellulose) (HPC)
[8] = dose: 400.0 mg/kg/injection, schedule: Q04DX003 (ip), vehicle: saline with Tween-80

## CCCCCC(CN(C)C)C(=O)/C=C/c1c(Cl)cccc1Cl (stereo unspecified)
[1]
  survivor count: 6 of 6
dose: 100.0 mg/kg/injection, schedule: Q01DX009 (ip), vehicle: Klucel (hydroxypropylcellulose) (HPC)
  survivor count: 2 of 6

## NC(=O)c1cc(Cl)cc(Cl)c1N1CC[N+](CCCl)=N1
dose: 200.0 mg/kg/injection, schedule: Q01DX001 (ip), vehicle: saline with Tween-80
  survivor count: 2 of 6
dose: 400.0 mg/kg/injection, schedule: Q01DX001 (ip), vehicle: saline with Tween-80
  survivor count: 1 of 6

## CCCCCCC(Cl)CCl (stereo unspecified)
dose: 200.0 mg/kg/injection, schedule: Q01DX009 (ip), vehicle: saline
  survivor count: 1 of 6

## C=C(C)C1(CCCC)C(=O)NC(=O)NC1=O
dose: 300.0 mg/kg/injection, schedule: Q01DX001 (ip), vehicle: saline
  survivor count: 3 of 6

## CCCCC(=O)N/N=C/c1ccccc1[N+](=O)[O-]
dose: 100.0 mg/kg/injection, schedule: Q01DX001 (ip), vehicle: carboxymethylcellulose (CMC)
  survivor count: 4 of 4

## Cn1nc(C(=O)O)c(=O)[nH]c1=O
[2]
  survivor count: 6 of 6

## CNCC(OC)c1ccc(O)c(O)c1 (stereo unspecified)
dose: 400.0 mg/kg/injection, schedule: Q01DX009 (ip), vehicle: saline
  T/C: 128 % of control

## CCCCN(C)N=Nc1ccccc1C(=O)O
dose: 6.25 mg/kg/injection, schedule: Q01DX009 (ip), vehicle: Klucel (hydroxypropylcellulose) (HPC)
  survivor count: 5 of 6
dose: 12.5 mg/kg/injection, schedule: Q01DX009 (ip), vehicle: Klucel (hydroxypropylcellulose) (HPC)
  survivor count: 6 of 6
dose: 25.0 mg/kg/injection, schedule: Q01DX009 (ip), vehicle: Klucel (hydroxypropylcellulose) (HPC)
  survivor count: 6 of 6
[1]
  survivor count: 6 of 6

## N#CSC1CSC(SC2=NC(SC#N)CS2)=N1 (stereo unspecified)
[3]
  survivor count: 0 of 6
[4]
  survivor count: 0 of 6

## Cc1cc2nc(Cc3nc4cc(C)c(C)cc4[nH]3)[nH]c2cc1C
dose: 100.0 mg/kg/injection, schedule: Q04DX003 (ip), vehicle: saline
  survivor count: 6 of 6
[4]
  survivor count: 3 of 6

## CCCCC(CCCC)NCCO
dose: 300.0 mg/kg/injection, schedule: Q01DX001 (ip), vehicle: carboxymethylcellulose (CMC)
  survivor count: 0 of 6

## Nc1cc(S(=O)(=O)F)cc(Cl)c1O
[3]
  survivor count: 0 of 6

## Cc1ccc(N=Nc2ccc(C)cc2NC(=O)c2c(Br)c(Br)c(Br)c(Br)c2C(=O)O)cc1
[5]
  survivor count: 1 of 6

## CN=C(NCCc1ccccc1)c1ccc(NC(=O)c2ccc(C(=O)Nc3ccc(C(=NC)NCCc4ccccc4)cc3)cc2)cc1
dose: 15.0 mg/kg/injection, schedule: Q01DX Z (ip), vehicle: saline
  survivor count: 1 of 6
dose: 30.0 mg/kg/injection, schedule: Q01DX Z (ip), vehicle: saline
  survivor count: 0 of 6
dose: 60.0 mg/kg/injection, schedule: Q01DX Z (ip), vehicle: saline
  survivor count: 0 of 6
dose: 120.0 mg/kg/injection, schedule: Q01DX Z (ip), vehicle: saline
  survivor count: 0 of 6

## c1ccc(N2CCOCC2)cc1
dose: 50.0 mg/kg/injection, schedule: Q01DX009 (ip), vehicle: saline with Tween-80
  survivor count: 3 of 3

## CC1(C)N=C(N)N=C(N)N1c1ccc(CCNC(=O)c2ccc(S(=O)(=O)F)cc2)cc1
dose: 100.0 mg/kg/injection, schedule: Q01DX001 (ip), vehicle: Klucel (hydroxypropylcellulose) (HPC)
  survivor count: 2 of 6
[6]
  survivor count: 2 of 6
[7]
  survivor count: 1 of 6

## Cc1ccccc1SC(=O)Nc1cc([N+](=O)[O-])ccc1Cl
dose: 100.0 mg/kg/injection, schedule: Q04DX003 (ip), vehicle: carboxymethylcellulose (CMC)
  survivor count: 3 of 3

## N#CCC(C#N)N1CCOCC1 (stereo unspecified)
dose: 200.0 mg/kg/injection, schedule: Q04DX003 (ip), vehicle: saline with Tween-80
  survivor count: 0 of 6
[8]
  survivor count: 0 of 6

## Cc1cc(N(C)c2ccccc2)nc(N)n1
dose: 50.0 mg/kg/injection, schedule: Q01DX Z (ip), vehicle: methylcellulose (MC)
  survivor count: 0 of 6
dose: 100.0 mg/kg/injection, schedule: Q01DX Z (ip), vehicle: methylcellulose (MC)
  survivor count: 0 of 6
[2]
  survivor count: 0 of 6

## ClC(Cl)(Cl)c1ccn(-c2ccccc2)n1
[6]
  survivor count: 3 of 6
[7]
  survivor count: 3 of 6

## Oc1ccc(Nc2ccnc3cc(Cl)ccc23)cc1CN(CCCl)CCCl
dose: 20.0 mg/kg/injection, schedule: Q01DX001 (ip), vehicle: saline
  survivor count: 4 of 4
dose: 40.0 mg/kg/injection, schedule: Q01DX001 (ip), vehicle: saline
  survivor count: 1 of 4
dose: 80.0 mg/kg/injection, schedule: Q01DX001 (ip), vehicle: saline
  survivor count: 0 of 4
dose: 100.0 mg/kg/injection, schedule: Q01DX001 (ip), vehicle: saline
  survivor count: 3 of 4
dose: 200.0 mg/kg/injection, schedule: Q01DX001 (ip), vehicle: saline
  survivor count: 0 of 4
dose: 400.0 mg/kg/injection, schedule: Q01DX001 (ip), vehicle: saline
  survivor count: 0 of 4

## C=CSc1ccccc1
[5]
  survivor count: 5 of 6

## CCOC(=O)Cc1cc(=O)[nH][nH]c1=O
dose: 75.0 mg/kg/injection, schedule: Q04DX002 (ip), vehicle: Klucel (hydroxypropylcellulose) (HPC)
  survivor count: 3 of 3

## Oc1ccc(Br)cc1C=Nc1cnc2ccccc2c1
dose: 400.0 mg/kg/injection, schedule: Q01DX001 (ip), vehicle: carboxymethylcellulose (CMC)
  survivor count: 4 of 4

## O=C(O)CS(=O)(=O)Cc1ccccc1
[8]
  survivor count: 0 of 6

## C/C=C/C=N/n1c(CCC)nc2ccccc2c1=O
dose: 400.0 mg/kg/injection, schedule: Q04DX002 (ip), vehicle: Klucel (hydroxypropylcellulose) (HPC)
  survivor count: 2 of 3

## NCCNCCNCCN1CC1
dose: 40.0 mg/kg/injection, schedule: Q04DX002 (ip), vehicle: saline
  survivor count: 0 of 3
dose: 100.0 mg/kg/injection, schedule: Q04DX002 (ip), vehicle: saline
  survivor count: 0 of 3
dose: 200.0 mg/kg/injection, schedule: Q04DX002 (ip), vehicle: saline
  survivor count: 0 of 3
dose: 400.0 mg/kg/injection, schedule: Q04DX002 (ip), vehicle: saline
  survivor count: 0 of 3
